Measured values as given in article PMC3907333.
These are yes or no findings as the source states them, for the method shown. Binding seen in cells or lysates may run through a third protein.

Chains of the proteins cited; added tags and fusions are not shown.
UniProt O13731: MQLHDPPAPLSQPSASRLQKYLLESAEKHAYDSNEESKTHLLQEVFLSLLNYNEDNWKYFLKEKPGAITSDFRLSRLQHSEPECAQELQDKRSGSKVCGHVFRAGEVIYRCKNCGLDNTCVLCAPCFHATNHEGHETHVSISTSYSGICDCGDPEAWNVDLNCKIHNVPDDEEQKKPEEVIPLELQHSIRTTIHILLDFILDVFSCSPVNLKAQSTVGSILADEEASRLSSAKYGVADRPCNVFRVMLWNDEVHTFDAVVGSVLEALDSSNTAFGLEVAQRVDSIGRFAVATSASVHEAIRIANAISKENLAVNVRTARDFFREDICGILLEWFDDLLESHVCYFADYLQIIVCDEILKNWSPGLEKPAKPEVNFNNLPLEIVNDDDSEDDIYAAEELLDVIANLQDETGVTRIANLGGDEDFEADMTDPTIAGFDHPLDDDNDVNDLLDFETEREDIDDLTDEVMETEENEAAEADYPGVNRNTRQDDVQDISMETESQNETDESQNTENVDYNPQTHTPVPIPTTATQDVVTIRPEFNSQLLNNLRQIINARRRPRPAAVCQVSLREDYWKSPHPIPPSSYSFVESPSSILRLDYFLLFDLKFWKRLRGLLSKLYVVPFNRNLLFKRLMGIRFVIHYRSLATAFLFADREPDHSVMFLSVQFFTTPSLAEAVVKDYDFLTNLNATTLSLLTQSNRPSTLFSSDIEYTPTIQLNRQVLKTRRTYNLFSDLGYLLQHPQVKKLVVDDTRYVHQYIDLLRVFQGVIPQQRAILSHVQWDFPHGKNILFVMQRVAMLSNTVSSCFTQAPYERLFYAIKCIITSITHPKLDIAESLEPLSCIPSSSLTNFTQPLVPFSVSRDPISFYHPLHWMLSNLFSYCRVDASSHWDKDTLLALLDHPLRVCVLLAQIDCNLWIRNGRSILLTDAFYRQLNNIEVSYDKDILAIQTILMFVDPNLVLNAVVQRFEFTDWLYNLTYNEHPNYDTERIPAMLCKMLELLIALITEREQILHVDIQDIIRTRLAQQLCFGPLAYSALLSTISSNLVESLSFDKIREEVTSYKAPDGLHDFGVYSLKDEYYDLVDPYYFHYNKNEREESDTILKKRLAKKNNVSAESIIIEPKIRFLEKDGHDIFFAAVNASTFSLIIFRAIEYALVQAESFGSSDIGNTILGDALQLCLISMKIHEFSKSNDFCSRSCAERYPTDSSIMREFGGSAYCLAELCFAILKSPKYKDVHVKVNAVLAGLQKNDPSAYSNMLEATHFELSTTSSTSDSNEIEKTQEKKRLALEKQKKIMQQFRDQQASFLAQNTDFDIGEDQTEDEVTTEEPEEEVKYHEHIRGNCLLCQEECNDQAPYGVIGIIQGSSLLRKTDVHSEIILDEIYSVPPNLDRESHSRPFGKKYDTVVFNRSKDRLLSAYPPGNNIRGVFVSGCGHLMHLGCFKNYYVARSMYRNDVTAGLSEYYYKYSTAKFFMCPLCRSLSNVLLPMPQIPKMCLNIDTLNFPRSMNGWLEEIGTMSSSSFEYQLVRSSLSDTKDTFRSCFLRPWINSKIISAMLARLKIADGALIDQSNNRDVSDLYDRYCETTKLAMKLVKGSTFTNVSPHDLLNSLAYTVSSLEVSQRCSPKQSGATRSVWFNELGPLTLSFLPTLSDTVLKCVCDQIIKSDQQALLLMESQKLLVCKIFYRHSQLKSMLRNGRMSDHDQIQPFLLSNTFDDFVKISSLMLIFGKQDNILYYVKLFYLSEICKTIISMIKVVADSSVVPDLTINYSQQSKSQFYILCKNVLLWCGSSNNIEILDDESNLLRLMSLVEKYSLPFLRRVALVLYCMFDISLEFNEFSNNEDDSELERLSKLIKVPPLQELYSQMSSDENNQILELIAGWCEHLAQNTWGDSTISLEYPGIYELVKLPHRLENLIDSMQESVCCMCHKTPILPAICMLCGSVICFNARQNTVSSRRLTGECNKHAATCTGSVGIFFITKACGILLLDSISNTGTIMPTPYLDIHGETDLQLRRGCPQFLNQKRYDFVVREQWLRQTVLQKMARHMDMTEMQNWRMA

Target: V5-tagged Ubr11 (S. pombe) (UniProt O13731)
Test: co-IP; V5-tagged Ubr11 or Flag-tagged San1 precipitated with antibodies to V5 or Flag from S. pombe cells treated with Bortezomib; control antibody; blot for HA (Spc7)

B1: Spc7-3HA (wild type) (protein, UniProt O59757 1-1364)
chain: MPTSPRRNSIATTDNVIGRNKSRKRPHSLGGPGALQELKEHTNPAKGILKSYSSFSVDPAFTGDEDFNDIHTQINNTVIGISSNVMAASKRLQMEDLQQLSRETSRKSLNRRVSFASHARVRWYPKDHQSDSEKSTSNHSTPERTFASDAKNHSPKGPTTTSFSRNETQSSPHSHSASIISDGSDMDIASPIRSTESDMVSEALNAGHPPPSLYPENDDLSIQNPTKALPEAEKALDVHDATREQVNDREETNMDLTIQFQEADSFLSHSESIKGLSSSEQGTVYSLKASHDPSNQTQLSSPNKSSSPTSIEISDFSKNNENHDQSENKEEEEDMMLTRPIEIPQHFSPIARPLTSQEAIVDMDITSNNINLSPVSHFSNGLDLQNLEEAPMNLTRPINANPHLTNHSPNDLTNGEEEMDTTSAFNIENSHLTLLSPIRPSSRSMEEQIMDLTQPISSTNAPTHLNEDDLNQFTSNISSSSKPRKDNNKTANSSKPIPDSEDFMDITRPFNILSPSKEALSEEQPMELTSTVFPCENSTSHLEVEEAAMDETVAFQIRGNNVELPSADKENAEREEIPSYSDKSENFNTTSFTNHERSPNGNNNLKFSKDPNSSSPSRHVVATPTDKLGTRKRRLRYSTSSFDQSTLRRNRLATIRNARKSISTLNDRELLPVNFFEKKVNSGLYKSVERSENYRLGATPLTAEKPFTTEKPLSSLPEEVSRQPTDDKGEQVSNADVDSGLSKTERLTIQQTNEIKHVPTNTTSSVKLPQQPSNEDEKERITTADYADSTSLERLESQEPNRNELVQVGSSNAGNTTSVGMNEHEKSPVKLSKGVSNVDTSLGASTINTNILNQDSGPNEEIPVGNEPEFDTMPTLPNVEPISLSDFLKMTGIEFLDNLTIAKRRETLLPNAEENKKCSIQELLESFYIQFPLLELYKFSCQQLQDYIAEGKDFVTKIEEETLKENPLLFYEYRKASSDMRVLMDSQFLMMKTFARLQAKGDWYEWREGLMQGIKHELNLNLTGMQRSLTHLMDVANVIHPYAQEIQERYNGSITTVQTLKKQKEFANQYDSTLLAQAQEKLEKLKVEVERRRRLLSEKEERRKELAIKIEQVTNSCSDLELRTNAEQDFYAKNQDFEFDEIKRYEEQLLNLKNELGWTIVSLTAGGIKLATNNTALSPYSAEVTVEILRQNFQVNVDIACKFPNESNACSSNVLEHVASSFSKWHSKVFSRNLRLLKKYLNDVSICWEQIVYLVQDFQRLWYHWPFLSVENDDKSIIINVELYLRSVSSKVKVVFGLPIDTIYQTTEVGKFYASTSVAVKQMYAESEGDSYVSEVLNTLSEVVHCTSTYALSSACLTVWNKYS
  binding: no binding
